Assay results reported in PubChem BioAssay AID1487 (National Center for Advancing Translational Sciences (NCATS), 2009).
In all, about 200,000 compounds went through this assay and about 25 (0.01%) were called active. This list was built around the results that the source calls inconclusive (neither active nor inactive); the mix of calls is not that of the screen. Calls come from the whole dose curve; as a rule, active = well fitted inhibition curve with a large enough effect in the signal ratio, with a control signal flat (not every such curve was filed as active); inconclusive = small, poorly fitted or top-dose-only effect, or effect the other way, or a change in a side signal; inactive = flat fitted curve, though single readings scatter; the % refers to the signal ratio. A potency beside an inconclusive call is a rough fit, not a confirmed value.

Assay: qHTS Assay for Modulators of Lamin A Splicing
Details: HeLa LMNA splicing GFP/RFP minigene ratio, 48 h; ratio change, negative = inhibition: at 46.1 µM (top of the series) unless noted
Outline: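 S3 HeLa cells stably expressing lamin A-EGFP splicing minigene plus DsRed2, 600 cells/well, 48 h compound exposure at 37C. Laser-scanning cytometry; analysed as GFP (500-530 nm)/RFP (575-640 nm) total intensity ratio; 0.5% DMSO vehicle.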
% is set by controls: 0 for no effect and ±100 for the full control effect; potency is the fitted concentration of half-maximal effect.

Compound | ratio change, negative = inhibition | Potency
N=C1SCC(=O)N1c1nc(-c2ccccc2)cs1 | inactive: 5.89% | –
Cc1ccc2[nH]c(CSc3nnc(C)s3)cc(=O)c2c1 | inconclusive: 4.53% [at 46 µM] | –
COc1ccccc1-n1c(-c2ccccc2)c[nH]c1=S | inactive: -6.73% [at 46 µM] | –
O=C1OC(/C=C/c2ccccc2)=NC/1=C\c1cccnc1 | inactive: -3.8% [at 46 µM] | –
O=C(OCc1ccco1)c1ccc2c(c1)N(Cc1ccc([N+](=O)[O-])cc1)C(=O)c1ccccc1S2 | inactive: 7.62% [at 46 µM] | –
COc1cc(C(=O)OCC(=O)N2CCCCC2C)cc(NC(=O)c2cccs2)c1OC (stereo not given) | inconclusive: -31.1% [at 46 µM] | –
Cc1nc(-n2nc(C)c(CCC(C)C)c2C)sc1C(=O)Nc1cccc(Cl)c1C | inactive: 4.98% [at 46 µM] | –
O=[N+]([O-])c1ccc(Nc2ccccc2F)nc1 | inconclusive: 20.1% [at 46 µM] | –
CC(Sc1nc2ccccc2s1)C(=O)c1c(N)n(C)c(=O)n(C)c1=O (stereo not given) | inconclusive: -31.4% [at 46 µM] | –
Cc1ccc(SCC(=O)Nc2ccc3oc(-c4ccc(F)cc4)nc3c2)cc1 | inconclusive: 2.25% [at 46 µM] | –
CCn1cc(C(=O)NCc2ccco2)c(=O)c2cc(S(=O)(=O)N3CCC(C)CC3)ccc21 | inactive: 2.36% | –
CCOc1ccc(CNC(=O)CCc2c(C)nn(-c3ccc(N4CCOCC4)nn3)c2C)cc1 | inconclusive: 11.9% [at 46 µM] | –
CCOC(=O)c1cnc2nc(N3CCOCC3)nn2c1N | inactive: -3.17% [at 46 µM] | –
CC(C)NC(=O)Cn1c(=O)nc(-c2ccccc2)c2ccccc21 | inconclusive: 2.68% [at 46 µM] | –
Nc1nnc(SC2CC(=O)N(c3ccccc3)C2=O)s1 (stereo not given) | inactive: -2.16% | –
COC(=O)c1sccc1NC(=O)CSc1ccccc1NC(=O)CNC(C)C | inactive: -8.88% [at 46 µM] | –
Cc1cccc(OCC(=O)Nc2cc(S(=O)(=O)N3CCCCC3)ccc2N2CCN(C)CC2)c1 | inactive: -2.16% [at 46 µM] | –
C/C(N)=C(/C#N)C(=O)COC(=O)c1cccc2ccccc12 | inactive: 9.45% | –
FC(F)(F)c1cnc(NNC(=S)Nc2cccnc2)c(Cl)c1 | inconclusive: 38.7% [at 46 µM] | –
O=C(CN1CCOc2ccccc21)NCc1ccc(F)cc1 | inconclusive: 4.32% | –
COc1ccc(-c2noc(CN(C)C3CCOCC3)n2)cc1 | inconclusive: 1.95% [at 46 µM] | –
COc1ccc(C(=O)N2CCN(CCc3ccccn3)CC2)cc1 | inconclusive: 19.8% [at 46 µM] | –

Compound | ratio change, negative = inhibition | Potency
O=S(=O)(c1cccc2c(I)cccc12)N1CCCNCC1 | inconclusive: -12.5% | –
CCOC(=O)CN(C)Cc1c[nH]c2ccccc12 | inconclusive: -39.4% | –
Cc1ccc(-n2c(SCC(=O)Nc3ccc4c5c(cccc35)CC4)nc(O)cc2=O)cc1 | inconclusive: 17.2% | –
CC(=O)NC(CCS(C)(=O)=O)C(=O)Nc1nccs1 (stereo not given) | inconclusive: 30.8% | –
O=C(c1ccc(F)cc1)C(C(=O)N1CCCCC1)n1ccccc1=O (stereo not given) | inconclusive: 23.8% [at 46 µM] | –
CCOc1ccc(N(C)S(=O)(=O)c2cc(-c3cnc(C)o3)ccc2OC)cc1 | inconclusive: 11.5% [at 46 µM] | –
CNC(=O)OCc1cccc(COC(=O)NC)n1 | inactive: -0.996% | –
CCOc1ccc(C(=O)Nc2ccc(N3CCN(C)CC3)cc2)cc1[N+](=O)[O-] | – | inconclusive: 2.51 µM [inhibitor, partial curve, poor fit]
O=C(N/C(=C\c1cccc([N+](=O)[O-])c1)C(=O)N1CCCCC1)c1cccs1 | inactive: -9.65% | –
COc1ccc(CCNC(=O)c2ccc(-c3ccc([N+](=O)[O-])cc3Cl)o2)cc1 | inconclusive: -33.3% | –
O=C(c1ccncc1)N1CCN(C2CCCCC2)CC1 | inconclusive: 16.7% [at 46 µM] | –
CCOC(=O)N1CCN(C(=O)Cn2nc(C)c3sc4ccccc4c3c2=O)CC1 | inconclusive: 9.65% | –
Cc1ccc(C(=O)CSc2nnc(-c3ccco3)n2CC2CCCO2)cc1 (stereo not given) | inactive: -5.69% | –
Cc1ccc(C(=O)N/C(=C\c2ccco2)C(=O)NCCc2c[nH]c3ccccc23)cc1 | inactive: -1.53% | –
CCOC(=O)c1cccc(NC(=O)NC2COc3ccccc3C2)c1 (stereo not given) | inactive: 3.22% [at 46 µM] | –
COc1ccc(-n2c(-c3ccc(Br)cc3)c[n+]3c2CCCCC3)cc1 | inconclusive: -32.1% [at 46 µM] | –
C=CCNC(=S)Nc1ccc2nc(C)oc2c1 | inconclusive: 9.12% [at 46 µM] | –
COc1ccc(NC(=O)CC(NCc2ccccn2)C(=O)O)cc1 (stereo not given) | inactive: -2.89% [at 46 µM] | –
CCOc1ccc(C2c3[nH]c4ccccc4c3CCN2C(=O)CCC2CCCC2)cc1 (stereo not given) | – | inconclusive: 2.82 µM [inhibitor, full curve]
CCN(CCCNC(=O)CN1N=C(c2ccc(C)cc2)CCC1=O)c1ccccc1 | – | inconclusive: 14.1 µM [inhibitor, partial curve]
CC(=O)C(Sc1nc(-c2ccccc2Cl)nc2c1c(=O)n(C)c(=O)n2C)C(=O)N(C)C (stereo not given) | inactive: -24.4% [at 46 µM] | –
Cc1ccc(/C=c2\s/c(=C(/C#N)C(=O)N3CCCC3)n(Cc3ccco3)c2=O)s1 | inactive: 15.9% | –

Compound | ratio change, negative = inhibition | Potency
CN1CCC(=C2c3ccccc3CC(=O)c3sccc32)CC1 | inconclusive: -35.2% | –
CC1CN(C(=S)NC(=O)c2ccc([N+](=O)[O-])cc2)CC(C)O1 (stereo not given) | inactive: -4.91% | –
CCOC(=O)c1sc(=S)n(C)c1NC(=O)c1ccccc1 | inactive: -5.85% | –
Cc1[nH]nc2c1C(c1cccnc1)N(c1ccc(Br)cc1)C2=O (stereo not given) | inactive: -17.1% | –
CCC(Sc1nncn1C)C(=O)Nc1cc(C)on1 (stereo not given) | inconclusive: 10.5% [at 46 µM] | –
O=C(CCC(=O)NCCCc1ccccc1)NCCCc1ccccc1 | inconclusive: 0.375% | –
COC(=O)c1cn(NC(=O)c2ccc([N+](=O)[O-])c(C)c2)c(=O)c2ccccc12 | inconclusive: -10.8% [at 46 µM] | –
CCOC(=O)C1=C(O)/C(=C\c2ccc(CNS(=O)(=O)c3ccc(Br)cc3)o2)N=C1C | inactive: 0.233% | –
O=C(c1ccc(Cl)c(S(=O)(=O)N2CCCC2)c1)N1CCN(c2ccc(F)cc2)CC1 | inconclusive: -21.7% [at 46 µM] | –
CCC(C(=O)OCC(=O)Nc1cc(Cl)cc(Cl)c1)c1ccccc1 (stereo not given) | inconclusive: 10.2% | –
O=C(NC(=S)Nc1ccc(N2CCOCC2)c(Cl)c1)c1cncc(Br)c1 | inconclusive: 13.8% | –
Clc1cccc(/C(Cc2nc3ccccc3[nH]2)=N\Nc2ccccc2)c1 | inactive: -4.47% | –
COCCNC(=S)N/N=C1\CC(C)CC(C)(C)C1 (stereo not given) | inconclusive: 26% [at 46 µM] | –
CC(=O)c1c(C)[nH]c(C(=O)Nc2ccccc2N2CCOCC2)c1C | inconclusive: -44.5% [at 46 µM] | –
Cc1ccc(CSc2nc3cccnc3n2Cc2nc(-c3ccccc3F)oc2C)cc1 | inconclusive: -22.9% [at 46 µM] | –
COc1cc(/C=N/NC(=O)c2ccc(CSc3nc4ccccc4[nH]3)cc2)cc(OC)c1OC | inactive: -17.8% | –
O=C(NCC(c1cccnc1)N1CCN(Cc2ccccc2)CC1)C(=O)Nc1ccc(F)cc1 (stereo not given) | inactive: 19.7% [at 46 µM] | –
Cc1cc(C)c(S(=O)(=O)Nc2ccc(-c3ccc(N4CCCCC4)nn3)cc2)cc1C | inconclusive: -9.11% [at 46 µM] | –
CC(C)CC(=O)N=C1SC2CS(=O)(=O)CC2N1Cc1ccccc1 (stereo not given) | inconclusive: 15.7% | –
O=C(Nc1cccc(-c2nc3ccccc3[nH]2)c1)c1cccc(NC(=O)c2ccco2)c1 | – | inconclusive: 35.5 µM [cytotoxic, single point]
CC(=O)Nc1ccc(NC(=O)Nc2ccccc2C)cc1 | inconclusive: 11.6% [at 46 µM] | –
COc1cccc(N=Nc2c(N)[nH]n3c(=O)c4c(nc23)CCCC4)c1 | inconclusive: -22.1% [at 46 µM] | –

Compound | ratio change, negative = inhibition | Potency
O=C(c1ccco1)N1CCN(C(=S)Nc2cccc([N+](=O)[O-])c2)CC1 | – | inconclusive: 3.16 µM [inhibitor, full curve, poor fit]
Cc1ccc(NC(=O)CSC(N)=O)cc1Cl | inconclusive: 21.7% | –
Cc1nc2cc(Cl)ccc2n1-c1ccccc1 | inconclusive: 10.2% | –
CCn1c(SCC(=O)Nc2cc(Cl)ccc2OC)nc2c([nH]c3ccccc32)c1=O | inactive: 10.3% [at 46 µM] | –
CCOCC(=O)Nc1cccc(Br)c1 | inactive: -13.2% | –
O=C(CSCC(=O)NC1CC1)Nc1ccc2ccccc2c1 | inactive: 4.1% | –
Cc1cccc(NC(=O)C2C3C=CC(C4CC34)C2C(=O)O)c1 (stereo not given) | inactive: -9.07% | –
COc1ccc(C(=O)Nc2ccccc2-c2nnn(CC(=O)N3CCOCC3)n2)cc1 | inconclusive: 23.2% [at 46 µM] | –
O=C(/C=C/c1cccc(Br)c1)NCC1CCCCC1 | inactive: -9.9% | –
O=C(Oc1ccc(-c2cnc3ccccc3n2)cc1)c1cc([N+](=O)[O-])ccc1Cl | inconclusive: 12.7% | –
Fc1cccc(Nc2ncnc3[nH]ncc23)c1 | inconclusive: -28.2% [at 46 µM] | –
CCCCCCCCCCOC(=O)C[N+](C)(C)C/C=C(/C)Cl | – | inconclusive: 35.5 µM [fluorescent, single point]
CC(NC(=O)CN(c1cccc(C(F)(F)F)c1)S(=O)(=O)c1ccc(Cl)c([N+](=O)[O-])c1)c1ccccc1 (stereo not given) | – | inconclusive: 28.2 µM [inhibitor, single point]
Cc1cc(C)nc(SCc2nc3ncccn3c2Br)n1 | inconclusive: 10.6% | –
COc1ccc(S(=O)(=O)Oc2ccc3ccccc3c2)cc1 | – | inconclusive: 35.5 µM [fluorescent, single point]
COc1ccc(C=O)cc1COc1ccccc1F | inconclusive: 2.39% | –
O=C(Nc1ccc(F)cc1)Nc1nnc(COc2ccccc2F)s1 | inconclusive: -39.9% [at 46 µM] | –
CC(C)Oc1ccc(C2C(C(=O)c3ccco3)=C(O)C(=O)N2Cc2cccnc2)cc1 (stereo not given) | inactive: 1.7% | –
Clc1ccccc1-c1cc(NCc2ccccc2)ncn1 | inconclusive: -11.5% | –

An excerpt of these results, as a markdown table:

| Compound | ratio change, negative = inhibition | Potency |
| --- | --- | --- |
| CC(=O)Nc1ccc(NC(=O)Nc2ccccc2C)cc1 | inconclusive: 11.6% [at 46 µM] | – |
| COc1cccc(N=Nc2c(N)[nH]n3c(=O)c4c(nc23)CCCC4)c1 | inconclusive: -22.1% [at 46 µM] | – |
| O=C(c1ccco1)N1CCN(C(=S)Nc2cccc([N+](=O)[O-])c2)CC1 | – | inconclusive: 3.16 µM [inhibitor, full curve, poor fit] |
| Cc1ccc(NC(=O)CSC(N)=O)cc1Cl | inconclusive: 21.7% | – |
| Cc1nc2cc(Cl)ccc2n1-c1ccccc1 | inconclusive: 10.2% | – |
| CCn1c(SCC(=O)Nc2cc(Cl)ccc2OC)nc2c([nH]c3ccccc32)c1=O | inactive: 10.3% [at 46 µM] | – |
| CCOCC(=O)Nc1cccc(Br)c1 | inactive: -13.2% | – |
| O=C(CSCC(=O)NC1CC1)Nc1ccc2ccccc2c1 | inactive: 4.1% | – |
| Cc1cccc(NC(=O)C2C3C=CC(C4CC34)C2C(=O)O)c1 (stereo not given) | inactive: -9.07% | – |
| COc1ccc(C(=O)Nc2ccccc2-c2nnn(CC(=O)N3CCOCC3)n2)cc1 | inconclusive: 23.2% [at 46 µM] | – |
| O=C(/C=C/c1cccc(Br)c1)NCC1CCCCC1 | inactive: -9.9% | – |
| O=C(Oc1ccc(-c2cnc3ccccc3n2)cc1)c1cc([N+](=O)[O-])ccc1Cl | inconclusive: 12.7% | – |
| Fc1cccc(Nc2ncnc3[nH]ncc23)c1 | inconclusive: -28.2% [at 46 µM] | – |
| CCCCCCCCCCOC(=O)C[N+](C)(C)C/C=C(/C)Cl | – | inconclusive: 35.5 µM [fluorescent, single point] |
| CC(NC(=O)CN(c1cccc(C(F)(F)F)c1)S(=O)(=O)c1ccc(Cl)c([N+](=O)[O-])c1)c1ccccc1 (stereo not given) | – | inconclusive: 28.2 µM [inhibitor, single point] |
| Cc1cc(C)nc(SCc2nc3ncccn3c2Br)n1 | inconclusive: 10.6% | – |
| COc1ccc(S(=O)(=O)Oc2ccc3ccccc3c2)cc1 | – | inconclusive: 35.5 µM [fluorescent, single point] |
| COc1ccc(C=O)cc1COc1ccccc1F | inconclusive: 2.39% | – |
| O=C(Nc1ccc(F)cc1)Nc1nnc(COc2ccccc2F)s1 | inconclusive: -39.9% [at 46 µM] | – |
| CC(C)Oc1ccc(C2C(C(=O)c3ccco3)=C(O)C(=O)N2Cc2cccnc2)cc1 (stereo not given) | inactive: 1.7% | – |
| Clc1ccccc1-c1cc(NCc2ccccc2)ncn1 | inconclusive: -11.5% | – |
